PubChem BioAssay AID1259308, NCATS, 2017
Purpose: 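Genes whose loss raises luciferase production in HEK293 cells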 (primary screen). Cell system: human HEK293 embryonic kidney cells stably expressing firefly luciferase (HEK-CMV-Luc2-Hygro). Knock-down reagent: single siRNA against human genes, 0.8 pmol siRNA per well. Time to read-out: 72 h. Measurement: 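Luciferase light (ONE-Glo) measured on one replicate plate set and viability (CellTiter-Glo) on the other, scaled to a negative control siRNA, with robust z-scores and luciferase per cell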. Direction: total luciferase, z-score and total luciferase, % of control: higher = more reporter protein produced. Hit rule: 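Active when the median/MAD z-score for overall luciferase is greater than 3; a gene was taken forward for validation with new siRNAs if at least two of its three siRNAs passed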. Meaning of the calls: active = raised luciferase; inactive = no rise.
The deposit covers about 59,000 reagents; shown is an unselected part. In the full data, about 1,510 (2.6%) are marked active. 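Calls use total luciferase alone and ignore viability, so some active siRNAs may act by altering cell number.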 Unmarked entries are inactive. The numbers tell different reagents against one gene apart. Not all columns of the deposit are shown. Reagent sequences are not shown.

With DPP3 #1, how do the results read?
total luciferase, z-score: -0.435; total luciferase, % of control: 73.2

How did the screen score DPP3 #2?
total luciferase, z-score: 1.45; total luciferase, % of control: 111

With DPP3 #3, what was measured?
total luciferase, z-score: -0.86; total luciferase, % of control: 64.8

With SHOC2 #1, what does the deposit list?
total luciferase, z-score: -0.295; total luciferase, % of control: 76

With SHOC2 #2, what does the deposit list?
total luciferase, z-score: 0.208; total luciferase, % of control: 86

Which result is listed for SHOC2 #3?
total luciferase, z-score: -0.469; total luciferase, % of control: 72.6

How did the screen score PACRG #1?
total luciferase, z-score: -0.102; total luciferase, % of control: 79.9

What is on record for PACRG #2?
total luciferase, z-score: 0.258; total luciferase, % of control: 87

With PACRG #3, how do the results read?
total luciferase, z-score: -1.02; total luciferase, % of control: 61.6

What is on record for BAZ1A #1?
total luciferase, z-score: -0.265; total luciferase, % of control: 76.6

With BAZ1A #2, how do the results read?
total luciferase, z-score: -0.00876; total luciferase, % of control: 81.7

How did the screen score BAZ1A #3?
total luciferase, z-score: -0.348; total luciferase, % of control: 75

What did the screen give for FBXO27 #1?
total luciferase, z-score: -1.7; total luciferase, % of control: 48.1

For FBXO27 #2, how do the results read?
total luciferase, z-score: -0.00927; total luciferase, % of control: 81.7

How did the screen score FBXO27 #3?
total luciferase, z-score: 1.98; total luciferase, % of control: 121

What is on record for TSLIG3C #1?
total luciferase, z-score: -1.25; total luciferase, % of control: 57.1

Which result is listed for TSLIG3C #2?
total luciferase, z-score: 1.55; total luciferase, % of control: 113

For TSLIG3C #3, how do the results read?
total luciferase, z-score: 1.22; total luciferase, % of control: 106

With SH3BGRL3 #1, how do the results read?
total luciferase, z-score: 0.619; total luciferase, % of control: 94.2

How did the screen score SH3BGRL3 #2?
total luciferase, z-score: 1.25; total luciferase, % of control: 107

For SH3BGRL3 #3, what was measured?
total luciferase, z-score: -0.243; total luciferase, % of control: 77

What is on record for ZNF257 #1?
total luciferase, z-score: -0.505; total luciferase, % of control: 71.8

How did the screen score ZNF257 #2?
total luciferase, z-score: -1.68; total luciferase, % of control: 48.5

What did the screen give for ZNF257 #3?
total luciferase, z-score: -0.469; total luciferase, % of control: 72.6

How did the screen score IRX3 #1?
total luciferase, z-score: -0.612; total luciferase, % of control: 69.7

What did the screen give for IRX3 #2?
total luciferase, z-score: 0.153; total luciferase, % of control: 84.9

With IRX3 #3, what does the deposit list?
total luciferase, z-score: 3.66 (active); total luciferase, % of control: 155

With CACNA2D3 #1, how do the results read?
total luciferase, z-score: 0.317; total luciferase, % of control: 88.2

What is on record for CACNA2D3 #2?
total luciferase, z-score: -0.577; total luciferase, % of control: 70.4

How did the screen score CACNA2D3 #3?
total luciferase, z-score: 0.242; total luciferase, % of control: 86.7

What is on record for ATG4D #1?
total luciferase, z-score: -1.89; total luciferase, % of control: 44.4

For ATG4D #2, what does the deposit list?
total luciferase, z-score: 0.0466; total luciferase, % of control: 82.8

For ATG4D #3, how do the results read?
total luciferase, z-score: 0.492; total luciferase, % of control: 91.7

How did the screen score SYS1 #1?
total luciferase, z-score: -0.254; total luciferase, % of control: 76.8

With SYS1 #2, what does the deposit list?
total luciferase, z-score: -0.0699; total luciferase, % of control: 80.5

With SYS1 #3, how do the results read?
total luciferase, z-score: 1.11; total luciferase, % of control: 104

What did the screen give for TRIM38 #1?
total luciferase, z-score: 0.436; total luciferase, % of control: 90.6

For TRIM38 #2, what was measured?
total luciferase, z-score: -0.418; total luciferase, % of control: 73.6

What did the screen give for TRIM38 #3?
total luciferase, z-score: 1.14; total luciferase, % of control: 105

What is on record for MTX2 #1?
total luciferase, z-score: -0.784; total luciferase, % of control: 66.3

With MTX2 #2, how do the results read?
total luciferase, z-score: 0.375; total luciferase, % of control: 89.3

With MTX2 #3, what was measured?
total luciferase, z-score: -0.0858; total luciferase, % of control: 80.2

Records listed so far with an active call:
IRX3 #3 → total luciferase, z-score = 3.66 (active); total luciferase, % of control = 155
